Reference: PubChem BioAssay AID330 (DTP/NCI, 2004)
The list is a part of this screen's results and no random one: it gathers tests that were run many times, whatever their T/C, doses with no T/C, and many T/C values between a quarter and a half above the control. Other doses and runs of a compound stand elsewhere. T/C: endpoint of the treated group in % of that of the vehicle group. Some doses have a count of surviving animals in place of a T/C: the source holds a T/C of zero for them, seemingly a mark for toxic or unscored doses. Some survivor counts are full or nearly so, which does not show that the dose was tolerated: the source hardly ever lists a survival T/C far under the control, and the zero likely stands for such cases as well. Counts of survivors are from the toxicity check (mostly the fifth day) where no day follows; animals may have died later. Schedules are NCI's codes, read here as Q, the interval in days (D) or hours (H), X, the number of doses. Some doses were run more than once; the values are given in rising order. Where survival is the endpoint, this PubChem deposit counts one and a half times the control or more as active, and values a quarter to a half above the control carry no call in these data; other NCI protocols may use other cut-offs.

Test system: P388 leukemia ip, CD2F1 mice, survival T/C
Test: NCI In Vivo Anticancer Drug Screen. Data for tumor model P388 Leukemia (intraperitoneal) in CD2F1 (CDF1) mice
Conditions: T/C endpoint: median survival time, higher T/C = longer survival
[1] = dose: 50.0 mg/kg/injection, schedule: Q01DX009 (ip), vehicle: Klucel (hydroxypropylcellulose) (HPC)
[2] = dose: 100.0 mg/kg/injection, schedule: Q01DX009 (ip), vehicle: Klucel (hydroxypropylcellulose) (HPC)
[3] = dose: 200.0 mg/kg/injection, schedule: Q01DX009 (ip), vehicle: Klucel (hydroxypropylcellulose) (HPC)
[4] = dose: 25.0 mg/kg/injection, schedule: Q01DX009 (ip), vehicle: water
[5] = dose: 100.0 mg/kg/injection, schedule: Q01DX009 (ip), vehicle: water
[6] = dose: 50.0 mg/kg/injection, schedule: Q01DX009 (ip), vehicle: saline with Tween-80
[7] = dose: 100.0 mg/kg/injection, schedule: Q01DX009 (ip), vehicle: saline with Tween-80
[8] = dose: 200.0 mg/kg/injection, schedule: Q01DX009 (ip), vehicle: saline with Tween-80
[9] = dose: 12.5 mg/kg/injection, schedule: Q01DX009 (ip), vehicle: saline
[10] = dose: 25.0 mg/kg/injection, schedule: Q01DX009 (ip), vehicle: saline
[11] = dose: 200.0 mg/kg/injection, schedule: Q01DX005 (ip), vehicle: saline with Tween-80
[12] = dose: 100.0 mg/kg/injection, schedule: Q01DX005 (ip), vehicle: Klucel (hydroxypropylcellulose) (HPC)
[13] = dose: 200.0 mg/kg/injection, schedule: Q01DX005 (ip), vehicle: Klucel (hydroxypropylcellulose) (HPC)
[14] = dose: 200.0 mg/kg/injection, schedule: Q04DX002 (ip), vehicle: saline with Tween-80
[15] = dose: 400.0 mg/kg/injection, schedule: Q04DX002 (ip), vehicle: saline with Tween-80

ClC1=C(Cl)N(C2=NCCC2)CC1 was tested, and the survivor count [1] was 0 of 6, the survivor count [2] was 0 of 6 and the survivor count [3] was 0 of 6.
For [Cl][Pt+2][Cl].[NH-]CC(=O)O.[NH-]CC(=O)O, the T/C (dose: 6.25 mg/kg/injection, schedule: Q01DX009 (ip), vehicle: water) was 128 % of control, the T/C [4] was 128 % of control and the survivor count [5] was 6 of 6.
For CCCCCCCCCCCCCCCC[As](CCCCCCCCCCCCCCCC)SC1OC(COC(C)=O)C(OC(C)=O)C(OC(C)=O)C1OC(C)=O (centres undefined), the T/C [6] was 125 % of control, the survivor count [7] was 3 of 6 and the survivor count [8] was 0 of 6.
For CC[CH2][Sn]([CH2]CC)([O]C(C)=O)[c]1ccccc1, the survivor count [9] was 2 of 6, the survivor count [10] was 0 of 6 and the survivor count (dose: 50.0 mg/kg/injection, schedule: Q01DX009 (ip), vehicle: saline) was 0 of 6. For the same compound, the survivor count (dose: 100.0 mg/kg/injection, schedule: Q01DX009 (ip), vehicle: saline) was 1 of 6 and the survivor count (dose: 200.0 mg/kg/injection, schedule: Q01DX009 (ip), vehicle: saline) was 0 of 6.
With COC1=CC(=O)C(C2(OC(C)C)OC(=O)C(Cl)=C2Cl)=CC1=O (centres undefined) the survivor count [11] was 2 of 6.
In the case of Brc1ccc(Nc2c3ccccc3nc3ccccc23)cc1, the survivor count (dose: 200.0 mg/kg/injection, schedule: Q04DX003 (ip), vehicle: saline with Tween-80) is reported as 4 of 6.
For Cc1cccc2c(Nc3ccc(NS(C)(=O)=O)cc3)c3ccccc3nc12, the T/C (dose: 1.2 mg/kg/injection, schedule: Q01DX009 (ip), vehicle: saline) was 137 % of control, the T/C (dose: 2.2 mg/kg/injection, schedule: Q01DX009 (ip), vehicle: saline with Tween-80) was 145 % of control and the T/C (dose: 3.3 mg/kg/injection, schedule: Q01DX009 (ip), vehicle: saline with Tween-80) was 145 % of control. For the same compound, the T/C (dose: 5.0 mg/kg/injection, schedule: Q01DX009 (ip), vehicle: saline with Tween-80) was 145 % of control, the T/C (dose: 22.0 mg/kg/injection, schedule: Q04DX003 (ip), vehicle: saline with Tween-80) was 140 % of control and the survivor count (dose: 75.0 mg/kg/injection, schedule: Q01DX009 (ip), vehicle: saline with Tween-80) was 6 of 6. For the same compound, the survivor count (dose: 150.0 mg/kg/injection, schedule: Q01DX009 (ip), vehicle: saline with Tween-80) was 6 of 6 and the survivor count (dose: 300.0 mg/kg/injection, schedule: Q01DX009 (ip), vehicle: saline with Tween-80) was 6 of 6.
With CCN(CC)CCCC(C)Nc1cc(OC)c2nc(C)ccc2c1OC (centres undefined) the survivor count (dose: 0.78 mg/kg/injection, schedule: Q01DX009 (ip), vehicle: saline) was 5 of 6, the survivor count (dose: 6.25 mg/kg/injection, schedule: Q01DX009 (ip), vehicle: saline) was 3 of 6 and the survivor count [9] was 0 of 6. The survivor count [10] was 0 of 6, the survivor count [6] was 0 of 6 and the survivor count [7] was 0 of 6. For the same compound, the survivor count [8] was 0 of 6.
With N#Cc1ccc(NC(=O)Nc2ccc(Cc3ccc(NC(=O)Nc4ccc(C#N)cc4)cc3)cc2)cc1 the survivor count (dose: 60.0 mg/kg/injection, schedule: Q01DX005 (ip), vehicle: Klucel (hydroxypropylcellulose) (HPC)) was 6 of 6 and the survivor count (dose: 240.0 mg/kg/injection, schedule: Q01DX005 (ip), vehicle: Klucel (hydroxypropylcellulose) (HPC)) was 6 of 6.
CNC(=O)OCc1cocc1COC(=O)NC was tested, and the survivor count (dose: 200.0 mg/kg/injection, schedule: Q01DX009 (ip), vehicle: distilled water + Tween-80) was 0 of 6.
C/C=C1\CNC2Cc3c([nH]c4ccccc34)C(c3c(OC)ccc4c5c([nH]c34)C3(C(=O)OC)CC4CC(CC)C3N(CC5)C4)CC1C2C(=O)OC (centres undefined) was tested, and the survivor count (dose: 6.25 mg/kg/injection, schedule: Q01DX009 (ip), vehicle: saline with Tween-80) was 4 of 4.
With COc1ccc(-c2csc(=[N+]3CCCCC3)s2)cc1 the T/C (dose: 12.5 mg/kg/injection, schedule: Q01DX009 (ip), vehicle: water) was 126 and 128 % of control, the T/C [4] was 146 % of control and the survivor count [4] was 6 of 6. The survivor count (dose: 50.0 mg/kg/injection, schedule: Q01DX009 (ip), vehicle: water) was 0 of 6 and 1 of 6 and the survivor count [5] was 0 of 6.
In the case of COC(=O)CC(N)C(=O)O (centres undefined), the survivor count (dose: 400.0 mg/kg/injection, schedule: Q01DX005 (ip), vehicle: saline) is reported as 3 of 5.
For NC(=N/C(=C/c1ccccc1)c1ccccc1)c1ccccc1, the survivor count [11] was 2 of 5.
For NC(=O)NN=C(C1CC1)C1CC1, the survivor count [12] was 3 of 5 and the survivor count [13] was 0 of 5.
For CN(C)CC/C=C1/c2ccccc2C=Nc2ccc(Cl)cc21, the survivor count [1] was 0 of 6, the survivor count [2] was 0 of 6 and the survivor count [3] was 0 of 6.
In the case of C=C(OC)C(Nc1cc(OC)c(OC)cc1C(=O)OC1CC(O[C@@H]2C(=O)C(NC(=O)OC)=C3/C(=C\CSSSC)[C@]2(O)C#C/C=C\C#C[C@@H]3OC2OC(C)C(NOC3CC(O)C(SC)C(C)O3)C(O)C2OC2CC(OC)C(NCCC)CO2)OC(C)C1O)OC (some centres undefined), the T/C (dose: 0.32 micrograms/kg/injection, schedule: Q01DX005 (ip), vehicle: alcohol) is reported as 146 % of control, the T/C (dose: 0.64 micrograms/kg/injection, schedule: Q01DX005 (ip), vehicle: alcohol) is reported as 138 and 146 % of control and the T/C (dose: 1.28 micrograms/kg/injection, schedule: Q01DX005 (ip), vehicle: alcohol) is reported as 146 % of control. For the same compound, the survivor count (dose: 5.0 micrograms/kg/injection, schedule: Q01DX005 (ip), vehicle: saline + alcohol) was 6 of 6, the survivor count (dose: 10.0 micrograms/kg/injection, schedule: Q01DX005 (ip), vehicle: saline + alcohol) was 3 of 6 and the survivor count (dose: 20.0 micrograms/kg/injection, schedule: Q01DX005 (ip), vehicle: saline + alcohol) was 1 of 6. For the same compound, the T/C (dose: 20.0 nanograms/kg/injection, schedule: Q01DX005 (ip), vehicle: saline + alcohol) was 137 % of control, the survivor count (dose: 40.0 micrograms/kg/injection, schedule: Q01DX005 (ip), vehicle: saline + alcohol) was 0 of 6 and the T/C (dose: 40.0 nanograms/kg/injection, schedule: Q01DX005 (ip), vehicle: saline + alcohol) was 132 % of control. For the same compound, the T/C (dose: 80.0 nanograms/kg/injection, schedule: Q01DX005 (ip), vehicle: saline + alcohol) was 148 % of control and the T/C (dose: 160.0 nanograms/kg/injection, schedule: Q01DX005 (ip), vehicle: saline + alcohol) was 141 % of control.
C=C1C(=O)OC2C1C(O)C(OC(=O)/C(C)=C/C)C(C)C1C(=O)C=C(C)C21 (centres undefined) was tested, and the survivor count (dose: 50.0 mg/kg/injection, schedule: Q01DX005 (ip), vehicle: Klucel (hydroxypropylcellulose) (HPC)) was 5 of 6 and the survivor count [12] was 2 of 6.
In the case of CC(C)(C)NC(Cc1ccccc1)=NC1CCCCC1, the survivor count (dose: 50.0 mg/kg/injection, schedule: Q04DX002 (ip), vehicle: saline) is reported as 6 of 6, the survivor count (dose: 100.0 mg/kg/injection, schedule: Q04DX002 (ip), vehicle: saline with Tween-80) is reported as 6 of 6 and the survivor count [14] is reported as 4 of 6. For the same compound, the survivor count [15] was 0 of 6.
For COc1cc(C2(C3CC(=O)OC3COC(c3ccccc3)(c3ccccc3)c3ccccc3)SCCCS2)cc(OC)c1OC (centres undefined), the survivor count [14] was 6 of 6 and the survivor count [15] was 6 of 6.
CC(C)C1CC(N(C)C)=CC(=S)N1 (centres undefined) was tested, and the survivor count (dose: 50.0 mg/kg/injection, schedule: Q01DX005 (ip), vehicle: saline) was 4 of 6 and the survivor count [13] was 3 of 6.
With CC(C)(OCc1ccccc1)c1ccccc1[P+](C)(c1ccccc1)c1ccccc1 the survivor count (dose: 400.0 mg/kg/injection, schedule: Q01DX001 (ip), vehicle: Klucel (hydroxypropylcellulose) (HPC)) was 0 of 6.
